Drug screen on melanoma cell lines: cell count

Values as published with doi:10.1371/journal.pone.0140310, rounded.

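The test systems are human melanoma cell lines, treated with a pair of drugs for 72 h and then stained and imaged. Each value is the count of nuclei relative to DMSO-treated wells, in %, so that 100 equals the control. Every drug was used at one fixed concentration, the higher of two screened. The file gives one value for each pair and line, without errors, so small differences may be noise.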 An unselected part of the screen is shown.

Drug key:
NVP-TAE684 (400 nM): COc1cc(N2CCC(N3CCN(C)CC3)CC2)ccc1Nc1ncc(Cl)c(Nc2ccccc2S(=O)(=O)C(C)C)n1
AS-252424 (5000 nM): O=C1NC(=O)/C(=C/c2ccc(-c3ccc(F)cc3O)o2)S1
ZM336372 (10000 nM): Cc1ccc(NC(=O)c2cccc(N(C)C)c2)cc1NC(=O)c1ccc(O)cc1
SNS-314 (4 nM): O=C(Nc1cccc(Cl)c1)Nc1ncc(CCNc2ncnc3ccsc23)s1
SNS-032 (50 nM): CC(C)(C)c1cnc(CSc2cnc(NC(=O)C3CCNCC3)s2)o1
GSK650394 (800 nM): O=C(O)c1ccc(-c2c[nH]c3ncc(-c4ccccc4)cc23)cc1C1CCCC1
BI-D1870 (1000 nM): CC(C)CCN1c2nc(Nc3cc(F)c(O)c(F)c3)ncc2N(C)C(=O)C1C (configuration not stated)
Src-I1 (10000 nM): COc1cc2ncnc(Nc3ccc(Oc4ccccc4)cc3)c2cc1OC
tipifarnib (50 nM): Cn1cncc1[C@@](N)(c1ccc(Cl)cc1)c1ccc2c(c1)c(-c1cccc(Cl)c1)cc(=O)n2C
pioglitazone (10000 nM): CCc1ccc(CCOc2ccc(CC3SC(=O)NC3=O)cc2)nc1 (configuration not stated)
GSK0660 (5000 nM): COC(=O)c1sccc1S(=O)(=O)Nc1ccc(Nc2ccccc2)cc1OC
GW0742 (10000 nM): Cc1cc(SCc2sc(-c3ccc(C(F)(F)F)c(F)c3)nc2C)ccc1OCC(=O)O
tamatinib (2000 nM): COc1cc(Nc2ncc(F)c(Nc3ccc4c(n3)NC(=O)C(C)(C)O4)n2)cc(OC)c1OC
vincristine (0.5 nM): CC[C@]1(O)C[C@H]2CN(CCc3c([nH]c4ccccc34)[C@@](C(=O)OC)(c3cc4c(cc3OC)N(C=O)[C@H]3[C@@](O)(C(=O)OC)[C@H](OC(C)=O)[C@]5(CC)C=CCN6CC[C@]43[C@@H]65)C2)C1
sunitinib (2000 nM): CCN(CC)CCNC(=O)c1c(C)[nH]c(/C=C2\C(=O)Nc3ccc(F)cc32)c1C

- SNS-032 and GSK650394 : COLO 800: 62.1; C32: 75.5; COLO 829: 104; COLO 792: 85.0
- Src-I1 and ZM336372 : COLO 800: 66.5; C32: 91.3; COLO 829: 92.3; COLO 792: 66.1
- SNS-314 and SNS-032 : COLO 800: 57.1; C32: 57.6; COLO 829: 86.7; COLO 792: 66.7
- sunitinib and AS-252424 : COLO 800: 48.5; C32: 93.9; COLO 829: 121; COLO 792: 55.9
- GSK0660 and SNS-314 : COLO 800: 32.5; C32: 68.8; COLO 829: 59.2; COLO 792: 46.2
- tipifarnib and ZM336372 : COLO 800: 63.8; C32: 101; COLO 829: 78.6; COLO 792: 35.9
- GSK0660 and sunitinib : COLO 800: 44.9; C32: 93.2; COLO 829: 106; COLO 792: 46.3
- sunitinib and ZM336372 : COLO 800: 28.2; C32: 64.1; COLO 829: 96.4; COLO 792: 28.5
- BI-D1870 and pioglitazone : COLO 800: 48.1; C32: 111; COLO 829: 114; COLO 792: 76.6
- SNS-032 and sunitinib : COLO 800: 33.7; C32: 52.6; COLO 829: 81.3; COLO 792: 41.2
- NVP-TAE684 and ZM336372 : COLO 800: 69.5; C32: 67.2; COLO 829: 130; COLO 792: 91.0
- Src-I1 and pioglitazone : COLO 800: 104; C32: 114; COLO 829: 93.6; COLO 792: 70.8
- vincristine and tamatinib : COLO 800: 23.3; C32: 39.9; COLO 829: 53.8; COLO 792: 32.3
- SNS-032 and tipifarnib : COLO 800: 48.4; C32: 65.8; COLO 829: 63.0; COLO 792: 61.5
- SNS-314 and vincristine : COLO 800: 33.3; C32: 53.9; COLO 829: 61.6; COLO 792: 62.5
- GSK0660 and GW0742 : COLO 800: 91.7; C32: 84.2; COLO 829: 103; COLO 792: 108
- GSK0660 and ZM336372 : COLO 800: 128; C32: 101; COLO 829: 106; COLO 792: 114
- tamatinib and GW0742 : COLO 800: 56.4; C32: 85.4; COLO 829: 89.5; COLO 792: 66.2
- tipifarnib and vincristine : COLO 800: 58.9; C32: 95.3; COLO 829: 60.0; COLO 792: 94.2
- BI-D1870 and GSK650394 : COLO 800: 65.0; C32: 90.3; COLO 829: 75.3; COLO 792: 73.0
- tipifarnib and NVP-TAE684 : COLO 800: 72.9; C32: 57.3; COLO 829: 75.6; COLO 792: 67.9
- AS-252424 and GSK650394 : COLO 800: 72.0; C32: 99.5; COLO 829: 91.9; COLO 792: 75.0
- sunitinib and GW0742 : COLO 800: 49.7; C32: 89.8; COLO 829: 113; COLO 792: 64.9
- SNS-314 and BI-D1870 : COLO 800: 34.1; C32: 60.6; COLO 829: 80.9; COLO 792: 53.8
- tamatinib and Src-I1 : COLO 800: 66.0; C32: 93.1; COLO 829: 103; COLO 792: 44.0
- GSK0660 and SNS-032 : COLO 800: 57.9; C32: 80.3; COLO 829: 80.2; COLO 792: 80.0
- GSK0660 and GSK650394 : COLO 800: 56.4; C32: 94.8; COLO 829: 94.1; COLO 792: 105
- BI-D1870 and sunitinib : COLO 800: 35.4; C32: 82.9; COLO 829: 86.8; COLO 792: 48.7
- tamatinib and NVP-TAE684 : COLO 800: 43.9; C32: 62.5; COLO 829: 68.2; COLO 792: 30.9
- Src-I1 and SNS-032 : COLO 800: 60.1; C32: 78.1; COLO 829: 123; COLO 792: 69.1
- pioglitazone and sunitinib : COLO 800: 47.4; C32: 82.3; COLO 829: 135; COLO 792: 55.1

The last 2 entries again:

- Src-I1 and SNS-032 | COLO 800: 60.1; C32: 78.1; COLO 829: 123; COLO 792: 69.1
- pioglitazone and sunitinib | COLO 800: 47.4; C32: 82.3; COLO 829: 135; COLO 792: 55.1